Experimental data taken from article PMC8986805.
These are yes or no findings as the source states them, for the method shown. Some results given as binding are weak or reduced against the parent protein; the word gives no strength.

Amino acid sequences for entries named in this document (tags omitted).
UniProt Q8N2C7: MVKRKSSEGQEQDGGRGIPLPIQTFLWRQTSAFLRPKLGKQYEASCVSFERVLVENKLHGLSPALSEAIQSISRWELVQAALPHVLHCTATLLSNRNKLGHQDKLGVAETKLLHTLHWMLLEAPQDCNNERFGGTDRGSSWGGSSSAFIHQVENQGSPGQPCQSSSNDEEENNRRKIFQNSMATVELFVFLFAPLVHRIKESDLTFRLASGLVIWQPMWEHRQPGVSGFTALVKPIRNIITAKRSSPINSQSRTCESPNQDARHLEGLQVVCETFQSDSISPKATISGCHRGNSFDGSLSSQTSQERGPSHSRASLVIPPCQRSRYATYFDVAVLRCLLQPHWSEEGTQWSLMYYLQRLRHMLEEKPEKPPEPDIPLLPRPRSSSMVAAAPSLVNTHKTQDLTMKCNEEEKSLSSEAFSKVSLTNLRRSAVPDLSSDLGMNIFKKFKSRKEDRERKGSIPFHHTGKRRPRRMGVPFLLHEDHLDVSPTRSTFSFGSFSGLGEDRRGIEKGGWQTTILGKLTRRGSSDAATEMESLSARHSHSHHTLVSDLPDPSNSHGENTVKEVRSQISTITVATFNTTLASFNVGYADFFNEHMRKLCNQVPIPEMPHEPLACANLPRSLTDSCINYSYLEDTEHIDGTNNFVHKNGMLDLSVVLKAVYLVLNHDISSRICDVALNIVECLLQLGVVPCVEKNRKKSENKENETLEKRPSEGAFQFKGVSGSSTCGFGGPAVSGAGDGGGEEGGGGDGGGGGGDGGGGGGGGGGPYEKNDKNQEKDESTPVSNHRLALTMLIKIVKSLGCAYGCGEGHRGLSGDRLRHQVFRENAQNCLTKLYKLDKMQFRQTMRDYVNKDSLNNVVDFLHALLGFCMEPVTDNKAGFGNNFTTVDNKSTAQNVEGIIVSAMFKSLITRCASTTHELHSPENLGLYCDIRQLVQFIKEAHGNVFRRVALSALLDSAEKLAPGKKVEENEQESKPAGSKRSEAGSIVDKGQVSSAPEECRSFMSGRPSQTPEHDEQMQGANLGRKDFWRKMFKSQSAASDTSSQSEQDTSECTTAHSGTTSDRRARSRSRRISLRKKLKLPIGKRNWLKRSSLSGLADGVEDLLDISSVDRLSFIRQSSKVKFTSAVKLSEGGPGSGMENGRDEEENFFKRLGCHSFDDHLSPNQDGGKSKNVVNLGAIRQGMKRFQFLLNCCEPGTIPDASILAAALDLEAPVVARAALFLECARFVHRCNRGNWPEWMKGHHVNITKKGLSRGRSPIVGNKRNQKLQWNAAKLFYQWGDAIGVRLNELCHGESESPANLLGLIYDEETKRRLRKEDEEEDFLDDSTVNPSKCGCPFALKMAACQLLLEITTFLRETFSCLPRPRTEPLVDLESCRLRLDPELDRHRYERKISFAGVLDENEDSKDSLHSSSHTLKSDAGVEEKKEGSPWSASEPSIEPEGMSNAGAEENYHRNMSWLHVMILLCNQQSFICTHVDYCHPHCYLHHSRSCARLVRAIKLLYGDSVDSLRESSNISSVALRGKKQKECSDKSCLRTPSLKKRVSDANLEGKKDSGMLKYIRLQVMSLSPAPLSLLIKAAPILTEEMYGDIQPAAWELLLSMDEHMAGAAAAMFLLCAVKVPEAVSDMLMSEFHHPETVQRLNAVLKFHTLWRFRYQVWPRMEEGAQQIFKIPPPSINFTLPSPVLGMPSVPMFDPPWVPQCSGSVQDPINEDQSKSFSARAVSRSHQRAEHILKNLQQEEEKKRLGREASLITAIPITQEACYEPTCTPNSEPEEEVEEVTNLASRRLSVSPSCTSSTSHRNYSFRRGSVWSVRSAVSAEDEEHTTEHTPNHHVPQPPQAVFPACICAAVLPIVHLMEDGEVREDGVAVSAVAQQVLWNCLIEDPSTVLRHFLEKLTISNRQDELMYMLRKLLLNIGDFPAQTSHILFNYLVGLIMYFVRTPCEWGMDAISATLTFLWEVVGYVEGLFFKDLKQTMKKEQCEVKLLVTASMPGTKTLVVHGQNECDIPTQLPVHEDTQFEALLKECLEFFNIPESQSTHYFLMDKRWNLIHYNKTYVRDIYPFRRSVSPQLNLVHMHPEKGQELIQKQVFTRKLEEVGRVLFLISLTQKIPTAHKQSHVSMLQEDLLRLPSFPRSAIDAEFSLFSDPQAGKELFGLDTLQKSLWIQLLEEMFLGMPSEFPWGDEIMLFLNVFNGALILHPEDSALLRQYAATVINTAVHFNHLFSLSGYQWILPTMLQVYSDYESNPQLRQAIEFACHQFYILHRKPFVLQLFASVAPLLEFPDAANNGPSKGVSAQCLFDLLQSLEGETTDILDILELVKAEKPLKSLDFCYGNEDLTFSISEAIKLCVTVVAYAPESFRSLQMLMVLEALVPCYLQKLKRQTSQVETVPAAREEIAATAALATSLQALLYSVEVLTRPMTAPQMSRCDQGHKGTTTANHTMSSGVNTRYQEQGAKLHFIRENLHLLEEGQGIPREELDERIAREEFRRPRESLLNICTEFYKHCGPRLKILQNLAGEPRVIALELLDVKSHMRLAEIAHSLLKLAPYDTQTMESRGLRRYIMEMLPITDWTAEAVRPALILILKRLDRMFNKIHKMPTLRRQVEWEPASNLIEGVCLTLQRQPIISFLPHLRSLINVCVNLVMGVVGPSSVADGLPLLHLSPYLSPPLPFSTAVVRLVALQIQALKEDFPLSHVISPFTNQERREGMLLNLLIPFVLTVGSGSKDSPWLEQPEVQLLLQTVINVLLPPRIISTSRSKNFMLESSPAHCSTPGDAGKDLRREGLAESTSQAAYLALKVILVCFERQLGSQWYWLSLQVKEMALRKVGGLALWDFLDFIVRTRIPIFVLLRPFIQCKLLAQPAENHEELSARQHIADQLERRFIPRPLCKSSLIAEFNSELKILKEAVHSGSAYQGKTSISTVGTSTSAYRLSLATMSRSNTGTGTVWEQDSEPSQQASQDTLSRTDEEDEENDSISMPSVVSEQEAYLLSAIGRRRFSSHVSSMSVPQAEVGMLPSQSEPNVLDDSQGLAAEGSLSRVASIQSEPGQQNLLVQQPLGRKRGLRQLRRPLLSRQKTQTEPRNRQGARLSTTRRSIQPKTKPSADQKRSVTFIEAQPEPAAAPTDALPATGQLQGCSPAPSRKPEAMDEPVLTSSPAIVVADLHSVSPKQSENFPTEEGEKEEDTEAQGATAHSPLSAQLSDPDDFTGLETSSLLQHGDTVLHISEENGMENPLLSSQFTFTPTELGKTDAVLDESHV
UniProt Q9P2D8: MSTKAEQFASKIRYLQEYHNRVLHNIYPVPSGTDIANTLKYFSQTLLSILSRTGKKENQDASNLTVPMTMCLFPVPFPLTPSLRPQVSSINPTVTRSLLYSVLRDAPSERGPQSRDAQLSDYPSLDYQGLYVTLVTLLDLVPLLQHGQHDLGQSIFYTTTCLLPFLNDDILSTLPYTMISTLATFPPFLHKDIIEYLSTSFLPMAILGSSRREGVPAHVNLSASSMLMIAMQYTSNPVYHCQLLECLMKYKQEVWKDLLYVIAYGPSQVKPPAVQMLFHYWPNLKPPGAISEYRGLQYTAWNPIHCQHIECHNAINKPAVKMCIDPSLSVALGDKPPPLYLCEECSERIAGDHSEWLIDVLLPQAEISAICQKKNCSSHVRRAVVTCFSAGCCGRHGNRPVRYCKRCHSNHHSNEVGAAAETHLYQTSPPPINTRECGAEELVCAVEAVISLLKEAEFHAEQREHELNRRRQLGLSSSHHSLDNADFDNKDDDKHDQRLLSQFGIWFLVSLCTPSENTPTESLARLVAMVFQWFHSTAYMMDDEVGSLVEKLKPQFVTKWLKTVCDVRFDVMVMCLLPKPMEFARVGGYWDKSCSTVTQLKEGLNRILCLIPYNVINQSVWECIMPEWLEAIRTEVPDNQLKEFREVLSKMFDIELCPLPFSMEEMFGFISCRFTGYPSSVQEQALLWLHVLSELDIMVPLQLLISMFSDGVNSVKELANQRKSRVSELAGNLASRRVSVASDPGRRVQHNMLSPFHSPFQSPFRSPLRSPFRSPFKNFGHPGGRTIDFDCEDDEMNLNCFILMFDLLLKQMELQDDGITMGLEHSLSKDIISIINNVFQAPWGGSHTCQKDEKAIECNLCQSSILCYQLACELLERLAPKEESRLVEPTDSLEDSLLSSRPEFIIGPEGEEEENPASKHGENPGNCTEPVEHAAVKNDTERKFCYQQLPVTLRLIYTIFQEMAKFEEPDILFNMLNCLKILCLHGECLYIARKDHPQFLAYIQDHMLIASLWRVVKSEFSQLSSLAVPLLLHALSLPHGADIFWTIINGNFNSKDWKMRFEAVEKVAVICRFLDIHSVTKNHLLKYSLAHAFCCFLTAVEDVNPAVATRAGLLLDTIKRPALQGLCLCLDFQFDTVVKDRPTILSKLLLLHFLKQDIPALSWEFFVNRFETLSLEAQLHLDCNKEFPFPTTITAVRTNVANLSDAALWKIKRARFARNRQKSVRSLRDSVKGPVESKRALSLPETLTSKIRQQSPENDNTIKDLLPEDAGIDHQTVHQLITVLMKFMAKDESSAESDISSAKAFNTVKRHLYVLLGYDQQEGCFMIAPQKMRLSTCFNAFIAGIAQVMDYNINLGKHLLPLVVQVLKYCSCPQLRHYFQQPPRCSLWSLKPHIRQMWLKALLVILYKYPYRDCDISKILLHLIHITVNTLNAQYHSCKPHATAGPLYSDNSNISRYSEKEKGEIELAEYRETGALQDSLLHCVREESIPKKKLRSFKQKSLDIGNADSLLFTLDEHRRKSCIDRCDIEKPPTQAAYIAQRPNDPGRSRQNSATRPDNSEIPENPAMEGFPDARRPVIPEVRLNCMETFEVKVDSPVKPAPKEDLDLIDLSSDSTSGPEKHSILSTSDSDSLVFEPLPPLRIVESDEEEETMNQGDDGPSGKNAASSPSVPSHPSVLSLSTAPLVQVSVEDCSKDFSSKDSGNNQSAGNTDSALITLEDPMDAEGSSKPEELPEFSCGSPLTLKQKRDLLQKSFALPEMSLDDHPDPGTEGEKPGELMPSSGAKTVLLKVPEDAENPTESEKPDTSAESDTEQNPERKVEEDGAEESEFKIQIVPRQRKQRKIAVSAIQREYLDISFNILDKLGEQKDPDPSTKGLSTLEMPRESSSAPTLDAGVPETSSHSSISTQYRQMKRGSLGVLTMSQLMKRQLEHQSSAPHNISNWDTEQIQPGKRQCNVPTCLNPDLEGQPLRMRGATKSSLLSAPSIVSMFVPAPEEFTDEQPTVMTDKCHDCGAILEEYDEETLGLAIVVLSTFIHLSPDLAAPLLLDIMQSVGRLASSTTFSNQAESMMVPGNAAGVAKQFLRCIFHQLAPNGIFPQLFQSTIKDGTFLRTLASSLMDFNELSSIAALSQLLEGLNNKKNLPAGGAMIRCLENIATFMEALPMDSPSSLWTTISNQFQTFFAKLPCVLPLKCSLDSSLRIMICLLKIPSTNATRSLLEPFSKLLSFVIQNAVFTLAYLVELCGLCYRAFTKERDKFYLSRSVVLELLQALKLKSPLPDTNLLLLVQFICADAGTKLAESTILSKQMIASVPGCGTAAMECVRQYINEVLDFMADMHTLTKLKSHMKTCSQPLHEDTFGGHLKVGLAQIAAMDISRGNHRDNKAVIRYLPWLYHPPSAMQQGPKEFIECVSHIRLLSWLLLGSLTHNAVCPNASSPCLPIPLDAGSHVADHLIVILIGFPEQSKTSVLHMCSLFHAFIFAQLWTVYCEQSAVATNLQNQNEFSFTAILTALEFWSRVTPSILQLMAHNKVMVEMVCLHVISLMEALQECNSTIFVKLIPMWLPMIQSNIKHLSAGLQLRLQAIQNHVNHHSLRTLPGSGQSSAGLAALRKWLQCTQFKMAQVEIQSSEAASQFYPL

Key:
human UNC80 (human) = human UNC80 (human) (UniProt Q8N2C7); test: cryo-EM structure; NALCN-GFP, FAM155A, UNC79-FLAG and UNC80 co-expressed in HEK293F, tandem affinity purified, BS3 cross-linked, SEC in 25 mM MOPS pH 7.4, 150 mM NaCl, 0.015% GDN; overall 4.5 Å, local refinement of UNC79 N-half + UNC80 C-half 3.3 Å; both purified
[1] = target: human NALCN with C-terminal GFP (human) (UniProt Q8IZF0); test: as above

binding (human UNC80 (human)): binds | binding [1]: binds
Substance: human UNC79 with C-terminal 2x FLAG tag (from UniProt Q9P2D8 1-2635)
